Protein sequences, listed by entry. Tags and fused reporters are not part of them. Lines headed by an entry give the natural chain unless they say otherwise; changes in a name come on top.
UniProt O95292: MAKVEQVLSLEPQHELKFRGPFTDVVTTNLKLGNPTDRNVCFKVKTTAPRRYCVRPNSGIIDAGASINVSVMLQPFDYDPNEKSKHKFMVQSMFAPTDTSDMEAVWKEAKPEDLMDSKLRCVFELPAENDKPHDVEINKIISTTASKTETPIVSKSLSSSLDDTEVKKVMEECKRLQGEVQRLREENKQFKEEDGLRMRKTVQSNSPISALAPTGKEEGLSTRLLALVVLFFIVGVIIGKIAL
UniProt P51648: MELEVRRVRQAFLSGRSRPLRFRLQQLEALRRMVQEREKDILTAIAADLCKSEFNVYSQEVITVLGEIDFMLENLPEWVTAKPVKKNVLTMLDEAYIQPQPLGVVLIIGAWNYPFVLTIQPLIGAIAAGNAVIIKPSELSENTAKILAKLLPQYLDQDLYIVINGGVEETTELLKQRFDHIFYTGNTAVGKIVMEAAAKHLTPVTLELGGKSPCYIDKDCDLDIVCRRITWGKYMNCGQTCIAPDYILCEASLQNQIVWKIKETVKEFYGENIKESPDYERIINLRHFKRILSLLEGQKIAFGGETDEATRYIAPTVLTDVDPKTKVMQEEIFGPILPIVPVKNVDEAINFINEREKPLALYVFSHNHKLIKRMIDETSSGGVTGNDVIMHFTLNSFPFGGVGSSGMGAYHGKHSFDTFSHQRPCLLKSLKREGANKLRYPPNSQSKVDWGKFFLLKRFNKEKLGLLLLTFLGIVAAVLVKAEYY
UniProt P05556: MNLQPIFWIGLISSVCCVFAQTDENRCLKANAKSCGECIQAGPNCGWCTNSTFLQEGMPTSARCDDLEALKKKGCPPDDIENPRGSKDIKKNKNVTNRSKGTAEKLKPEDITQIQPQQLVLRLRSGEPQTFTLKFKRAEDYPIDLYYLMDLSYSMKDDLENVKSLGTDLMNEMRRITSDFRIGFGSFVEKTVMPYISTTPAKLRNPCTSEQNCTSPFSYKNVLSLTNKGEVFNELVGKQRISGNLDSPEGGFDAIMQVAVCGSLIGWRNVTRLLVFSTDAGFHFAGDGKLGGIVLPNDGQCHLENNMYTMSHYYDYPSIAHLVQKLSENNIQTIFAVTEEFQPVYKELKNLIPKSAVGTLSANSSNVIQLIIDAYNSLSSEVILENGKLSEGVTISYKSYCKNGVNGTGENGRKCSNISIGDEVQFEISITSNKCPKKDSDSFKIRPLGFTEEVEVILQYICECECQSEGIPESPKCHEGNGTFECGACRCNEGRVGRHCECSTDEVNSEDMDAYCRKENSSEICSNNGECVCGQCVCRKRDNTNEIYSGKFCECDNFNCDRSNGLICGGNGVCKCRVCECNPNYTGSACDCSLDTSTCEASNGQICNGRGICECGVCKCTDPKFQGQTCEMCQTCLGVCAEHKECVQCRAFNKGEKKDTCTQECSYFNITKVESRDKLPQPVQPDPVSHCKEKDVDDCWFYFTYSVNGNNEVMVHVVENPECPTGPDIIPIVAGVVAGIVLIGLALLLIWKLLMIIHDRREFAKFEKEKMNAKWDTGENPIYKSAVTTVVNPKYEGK

In publication PMC6663880:

T1: RHBDL4mycBirA* (human) (UniProt Q8TEB9)
T1 sequence: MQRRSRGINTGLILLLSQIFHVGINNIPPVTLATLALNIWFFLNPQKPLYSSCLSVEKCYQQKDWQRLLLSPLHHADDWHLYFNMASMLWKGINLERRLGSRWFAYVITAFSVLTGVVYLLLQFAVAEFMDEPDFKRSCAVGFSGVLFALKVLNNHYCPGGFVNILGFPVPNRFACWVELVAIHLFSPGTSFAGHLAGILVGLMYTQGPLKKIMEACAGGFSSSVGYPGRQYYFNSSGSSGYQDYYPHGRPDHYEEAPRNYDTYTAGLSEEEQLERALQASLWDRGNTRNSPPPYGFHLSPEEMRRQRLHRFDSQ

T2: mycBirA*iRhom2 (human) (UniProt Q6PJF5)
T2 sequence: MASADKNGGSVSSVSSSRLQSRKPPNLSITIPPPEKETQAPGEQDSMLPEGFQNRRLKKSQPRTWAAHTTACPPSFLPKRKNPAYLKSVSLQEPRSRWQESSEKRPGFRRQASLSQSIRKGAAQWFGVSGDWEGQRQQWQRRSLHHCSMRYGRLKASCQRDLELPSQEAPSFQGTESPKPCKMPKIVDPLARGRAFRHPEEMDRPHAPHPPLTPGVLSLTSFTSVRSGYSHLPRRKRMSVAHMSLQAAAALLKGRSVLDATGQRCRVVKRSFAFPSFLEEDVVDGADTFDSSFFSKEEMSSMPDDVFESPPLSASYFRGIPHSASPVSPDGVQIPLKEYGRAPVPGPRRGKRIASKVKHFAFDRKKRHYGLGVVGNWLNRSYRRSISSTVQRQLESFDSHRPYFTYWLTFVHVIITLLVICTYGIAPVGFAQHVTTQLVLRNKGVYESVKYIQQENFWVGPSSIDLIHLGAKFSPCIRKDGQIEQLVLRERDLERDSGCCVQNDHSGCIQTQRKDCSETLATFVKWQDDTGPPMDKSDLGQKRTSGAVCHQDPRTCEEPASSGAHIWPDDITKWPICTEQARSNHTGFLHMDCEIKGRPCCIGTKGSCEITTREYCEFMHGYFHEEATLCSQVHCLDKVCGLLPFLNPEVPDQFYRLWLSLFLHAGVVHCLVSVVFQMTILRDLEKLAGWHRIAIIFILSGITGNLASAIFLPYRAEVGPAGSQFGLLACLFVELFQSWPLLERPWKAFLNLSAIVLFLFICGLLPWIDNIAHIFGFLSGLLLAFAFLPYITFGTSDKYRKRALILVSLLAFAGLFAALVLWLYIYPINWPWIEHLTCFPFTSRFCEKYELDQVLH


Tests used:
[1] = target: T1, RHBDL4mycBirA* (human); assay: proximity labelling; BioID: bait fused to mycBirA* stably expressed in HEK293 or HeLa cells, 50 μM biotin for 24 h, lysis in RIPA buffer, capture on streptavidin beads, MS; proteins found with mycBirA* alone excluded
[2] = target: T2, mycBirA*iRhom2 (human); assay: as above

Row | Molecule | binding [1] | binding [2]
1 | VAPB (from UniProt O95292 1-243) | binds | –
2 | AL3A2 (from UniProt P51648 1-485) | binds | –
3 | ITGB1 (from UniProt P05556 21-798) | binds | –
4 | STX5 (protein, UniProt Q13190 1-355) MIPRKRYGSKNTDQGVYLGLSKTQVLSPATAGSSSSDIAPLPPPVTLVPPPPDTMSCRDRTQEFLSACKSLQTRQNGIQTNKPALRAVRQRSEFTLMAKRIGKDLSNTFAKLEKLTILAKRKSLFDDKAVEIEELTYIIKQDINSLNKQIAQLQDFVRAKGSQSGRHLQTHSNTIVVSLQSKLASMSNDFKSVLEVRTENLKQQRSRREQFSRAPVSALPLAPNHLGGGAVVLGAESHASKDVAIDMMDSRTSQQLQLIDEQDSYIQSRADTMQNIESTIVELGSIFQQLAHMVKEQEETIQRIDENVLGAQLDVEAAHSEILKYFQSVTSNRWLMVKIFLILIVFFIIFVVFLA | binds | –
5 | PTP1B (protein-tyrosine phosphatase nonreceptor type 1) (enzyme, UniProt P18031 1-435) MEMEKEFEQIDKSGSWAAIYQDIRHEASDFPCRVAKLPKNKNRNRYRDVSPFDHSRIKLHQEDNDYINASLIKMEEAQRSYILTQGPLPNTCGHFWEMVWEQKSRGVVMLNRVMEKGSLKCAQYWPQKEEKEMIFEDTNLKLTLISEDIKSYYTVRQLELENLTTQETREILHFHYTTWPDFGVPESPASFLNFLFKVRESGSLSPEHGPVVVHCSAGIGRSGTFCLADTCLLLMDKRKDPSSVDIKKVLLEMRKFRMGLIQTADQLRFSYLAVIEGAKFIMGDSSVQDQWKELSHEDLEPPPEHIPPPPRPPKRILEPHNGKCREFFPNHQWVKEETQEDKDCPIKEEKGSPLNAAPYGIESMSQDTEVRSRVVGGSLRGAQAASPAKGEPSLPEKDEDHALSYWKPFLVNMCVATVLTAGAYLCYRFLFNSNT | binds | binds
6 | UBXN4 (protein, UniProt Q92575 1-508) MLWFQGAIPAAIATAKRSGAVFVVFVAGDDEQSTQMAASWEDDKVTEASSNSFVAIKIDTKSEACLQFSQIYPVVCVPSSFFIGDSGIPLEVIAGSVSADELVTRIHKVRQMHLLKSETSVANGSQSESSVSTPSASFEPNNTCENSQSRNAELCEIPPTSDTKSDTATGGESAGHATSSQEPSGCSDQRPAEDLNIRVERLTKKLEERREEKRKEEEQREIKKEIERRKTGKEMLDYKRKQEEELTKRMLEERNREKAEDRAARERIKQQIALDRAERAARFAKTKEEVEAAKAAALLAKQAEMEVKRESYARERSTVARIQFRLPDGSSFTNQFPSDAPLEEARQFAAQTVGNTYGNFSLATMFPRREFTKEDYKKKLLDLELAPSASVVLLPAGRPTASIVHSSSGDIWTLLGTVLYPFLAIWRLISNFLFSNPPPTQTSVRVTSSEPPNPASSSKSEKREPVRKRVLEKRGDDFKKEGKIYRLRTQDDGEDENNTWNGNSTQQM | binds | –
7 | TRIM13 (protein, UniProt O60858 1-407) MELLEEDLTCPICCSLFDDPRVLPCSHNFCKKCLEGILEGSVRNSLWRPAPFKCPTCRKETSATGINSLQVNYSLKGIVEKYNKIKISPKMPVCKGHLGQPLNIFCLTDMQLICGICATRGEHTKHVFCSIEDAYAQERDAFESLFQSFETWRRGDALSRLDTLETSKRKSLQLLTKDSDKVKEFFEKLQHTLDQKKNEILSDFETMKLAVMQAYDPEINKLNTILQEQRMAFNIAEAFKDVSEPIVFLQQMQEFREKIKVIKETPLPPSNLPASPLMKNFDTSQWEDIKLVDVDKLSLPQDTGTFISKIPWSFYKLFLLILLLGLVIVFGPTMFLEWSLFDDLATWKGCLSNFSSYLTKTADFIEQSVFYWEQVTDGFFIFNERFKNFTLVVLNNVAEFVCKYKLL | binds | –
8 | VCPIP1 (protein, UniProt Q96JH7 1-1222) MSQPPPPPPPLPPPPPPPEAPQTPSSLASAAASGGLLKRRDRRILSGSCPDPKCQARLFFPASGSVSIECTECGQRHEQQQLLGVEEVTDPDVVLHNLLRNALLGVTGAPKKNTELVKVMGLSNYHCKLLSPILARYGMDKQTGRAKLLRDMNQGELFDCALLGDRAFLIEPEHVNTVGYGKDRSGSLLYLHDTLEDIKRANKSQECLIPVHVDGDGHCLVHAVSRALVGRELFWHALRENLKQHFQQHLARYQALFHDFIDAAEWEDIINECDPLFVPPEGVPLGLRNIHIFGLANVLHRPIILLDSLSGMRSSGDYSATFLPGLIPAEKCTGKDGHLNKPICIAWSSSGRNHYIPLVGIKGAALPKLPMNLLPKAWGVPQDLIKKYIKLEEDGGCVIGGDRSLQDKYLLRLVAAMEEVFMDKHGIHPSLVADVHQYFYRRTGVIGVQPEEVTAAAKKAVMDNRLHKCLLCGALSELHVPPEWLAPGGKLYNLAKSTHGQLRTDKNYSFPLNNLVCSYDSVKDVLVPDYGMSNLTACNWCHGTSVRKVRGDGSIVYLDGDRTNSRSTGGKCGCGFKHFWDGKEYDNLPEAFPITLEWGGRVVRETVYWFQYESDSSLNSNVYDVAMKLVTKHFPGEFGSEILVQKVVHTILHQTAKKNPDDYTPVNIDGAHAQRVGDVQGQESESQLPTKIILTGQKTKTLHKEELNMSKTERTIQQNITEQASVMQKRKTEKLKQEQKGQPRTVSPSTIRDGPSSAPATPTKAPYSPTTSKEKKIRITTNDGRQSMVTLKSSTTFFELQESIAREFNIPPYLQCIRYGFPPKELMPPQAGMEKEPVPLQHGDRITIEILKSKAEGGQSAAAHSAHTVKQEDIAVTGKLSSKELQEQAEKEMYSLCLLATLMGEDVWSYAKGLPHMFQQGGVFYSIMKKTMGMADGKHCTFPHLPGKTFVYNASEDRLELCVDAAGHFPIGPDVEDLVKEAVSQVRAEATTRSRESSPSHGLLKLGSGGVVKKKSEQLHNVTAFQGKGHSLGTASGNPHLDPRARETSVVRKHNTGTDFSNSSTKTEPSVFTASSSNSELIRIAPGVVTMRDGRQLDPDLVEAQRKKLQEMVSSIQASMDRHLRDQSTEQSPSDLPQRKTEVVSSSAKSGSLQTGLPESFPLTGGTENLNTETTDGCVADALGAAFATRSKAQRGNSVEELEEMDSQDAEMTNTTEPMDHS | binds | –
9 | LAP2B (protein, UniProt P42167 1-454) MPEFLEDPSVLTKDKLKSELVANNVTLPAGEQRKDVYVQLYLQHLTARNRPPLPAGTNSKGPPDFSSDEEREPTPVLGSGAAAAGRSRAAVGRKATKKTDKPRQEDKDDLDVTELTNEDLLDQLVKYGVNPGPIVGTTRKLYEKKLLKLREQGTESRSSTPLPTISSSAENTRQNGSNDSDRYSDNEEDSKIELKLEKREPLKGRAKTPVTLKQRRVEHNQSYSQAGITETEWTSGSSKGGPLQALTRESTRGSRRTPRKRVETSEHFRIDGPVISESTPIAETIMASSNESLVVNRVTGNFKHASPILPITEFSDIPRRAPKKPLTRAEVGEKTEERRVERDILKEMFPYEASTPTGISASCRRPIKGAAGRPLELSDFRMEESFSSKYVPKYVPLADVKSEKTKKGRSIPVWIKILLFVVVAVFLFLVYQAMETNQVNPFSNFLHVDPRKSN | binds | –

No constants are given. Whether binding was seen depends on the method and setting. In cells and extracts the contact can be indirect. These calls come from enrichment with a bait or labelling near it, and not all partners need be listed. Sequences can lack the tags named with a protein.
